According to publication PMC8168955:
These are yes or no findings as the source states them, for the method shown. Binding seen in cells or lysates may run through a third protein. Some results given as binding are weak or reduced against the parent protein; the word gives no strength. Sequences can lack the tags named with a protein.

Columns and labels:
[1] = biological target: T1, human NLRP1-3xFLAG, wild type (human), Q9C000; assay: co-IP; anti-FLAG-M2-agarose precipitation of NLRP1-3xFLAG (WT or mutant) from HEK293T lysates in 1% NP40 lysis buffer with 150 mM NaCl, 4 hours or overnight at 4°C; DPP9 detected by immunoblot; in Fig 2B cells were treated with 2 μM Talabostat or dimethyl sulfoxide before harvest; conditions: remark: other sources report otherwise
T1 chain: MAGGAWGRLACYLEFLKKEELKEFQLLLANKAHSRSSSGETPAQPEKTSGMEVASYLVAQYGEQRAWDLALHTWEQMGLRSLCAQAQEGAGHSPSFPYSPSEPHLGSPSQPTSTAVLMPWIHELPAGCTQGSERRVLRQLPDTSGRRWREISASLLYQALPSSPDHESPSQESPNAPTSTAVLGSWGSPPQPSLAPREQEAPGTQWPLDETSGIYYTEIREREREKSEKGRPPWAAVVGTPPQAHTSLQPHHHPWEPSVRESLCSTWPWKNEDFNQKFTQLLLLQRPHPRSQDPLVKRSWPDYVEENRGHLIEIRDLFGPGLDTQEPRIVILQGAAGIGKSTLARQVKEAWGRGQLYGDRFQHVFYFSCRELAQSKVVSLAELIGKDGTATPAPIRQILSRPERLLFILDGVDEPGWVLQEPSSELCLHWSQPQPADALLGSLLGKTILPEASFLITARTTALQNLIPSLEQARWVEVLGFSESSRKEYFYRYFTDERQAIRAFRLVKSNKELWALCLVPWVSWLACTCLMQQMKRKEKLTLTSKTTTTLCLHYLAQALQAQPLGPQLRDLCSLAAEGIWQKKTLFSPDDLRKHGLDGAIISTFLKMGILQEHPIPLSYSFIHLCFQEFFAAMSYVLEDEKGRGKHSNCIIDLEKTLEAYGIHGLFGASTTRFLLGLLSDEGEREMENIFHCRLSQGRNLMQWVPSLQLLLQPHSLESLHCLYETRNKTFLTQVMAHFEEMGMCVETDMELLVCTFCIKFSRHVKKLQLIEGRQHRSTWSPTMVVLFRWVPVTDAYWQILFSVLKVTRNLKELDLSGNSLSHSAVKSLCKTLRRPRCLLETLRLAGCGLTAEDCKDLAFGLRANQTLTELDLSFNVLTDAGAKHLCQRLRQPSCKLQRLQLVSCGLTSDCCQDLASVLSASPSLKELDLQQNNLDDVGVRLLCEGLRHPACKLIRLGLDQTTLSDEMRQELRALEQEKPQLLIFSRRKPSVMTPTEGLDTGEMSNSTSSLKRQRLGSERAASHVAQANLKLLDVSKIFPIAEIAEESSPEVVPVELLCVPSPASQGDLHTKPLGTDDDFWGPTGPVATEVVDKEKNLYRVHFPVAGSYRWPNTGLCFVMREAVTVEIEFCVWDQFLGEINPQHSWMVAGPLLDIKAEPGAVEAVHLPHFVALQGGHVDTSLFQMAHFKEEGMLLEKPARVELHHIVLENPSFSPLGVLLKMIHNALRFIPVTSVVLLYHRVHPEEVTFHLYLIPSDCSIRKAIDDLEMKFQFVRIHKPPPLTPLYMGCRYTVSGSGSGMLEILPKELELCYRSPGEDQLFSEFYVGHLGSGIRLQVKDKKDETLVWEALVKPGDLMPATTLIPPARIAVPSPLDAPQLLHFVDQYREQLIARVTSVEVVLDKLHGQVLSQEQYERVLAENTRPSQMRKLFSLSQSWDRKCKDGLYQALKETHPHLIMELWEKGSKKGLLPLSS

[2] = biological target: T2, human NLRP1-3xFLAG P1214R (human), Q9C000; assay: as above; conditions: remark: other sources report otherwise
T2 chain: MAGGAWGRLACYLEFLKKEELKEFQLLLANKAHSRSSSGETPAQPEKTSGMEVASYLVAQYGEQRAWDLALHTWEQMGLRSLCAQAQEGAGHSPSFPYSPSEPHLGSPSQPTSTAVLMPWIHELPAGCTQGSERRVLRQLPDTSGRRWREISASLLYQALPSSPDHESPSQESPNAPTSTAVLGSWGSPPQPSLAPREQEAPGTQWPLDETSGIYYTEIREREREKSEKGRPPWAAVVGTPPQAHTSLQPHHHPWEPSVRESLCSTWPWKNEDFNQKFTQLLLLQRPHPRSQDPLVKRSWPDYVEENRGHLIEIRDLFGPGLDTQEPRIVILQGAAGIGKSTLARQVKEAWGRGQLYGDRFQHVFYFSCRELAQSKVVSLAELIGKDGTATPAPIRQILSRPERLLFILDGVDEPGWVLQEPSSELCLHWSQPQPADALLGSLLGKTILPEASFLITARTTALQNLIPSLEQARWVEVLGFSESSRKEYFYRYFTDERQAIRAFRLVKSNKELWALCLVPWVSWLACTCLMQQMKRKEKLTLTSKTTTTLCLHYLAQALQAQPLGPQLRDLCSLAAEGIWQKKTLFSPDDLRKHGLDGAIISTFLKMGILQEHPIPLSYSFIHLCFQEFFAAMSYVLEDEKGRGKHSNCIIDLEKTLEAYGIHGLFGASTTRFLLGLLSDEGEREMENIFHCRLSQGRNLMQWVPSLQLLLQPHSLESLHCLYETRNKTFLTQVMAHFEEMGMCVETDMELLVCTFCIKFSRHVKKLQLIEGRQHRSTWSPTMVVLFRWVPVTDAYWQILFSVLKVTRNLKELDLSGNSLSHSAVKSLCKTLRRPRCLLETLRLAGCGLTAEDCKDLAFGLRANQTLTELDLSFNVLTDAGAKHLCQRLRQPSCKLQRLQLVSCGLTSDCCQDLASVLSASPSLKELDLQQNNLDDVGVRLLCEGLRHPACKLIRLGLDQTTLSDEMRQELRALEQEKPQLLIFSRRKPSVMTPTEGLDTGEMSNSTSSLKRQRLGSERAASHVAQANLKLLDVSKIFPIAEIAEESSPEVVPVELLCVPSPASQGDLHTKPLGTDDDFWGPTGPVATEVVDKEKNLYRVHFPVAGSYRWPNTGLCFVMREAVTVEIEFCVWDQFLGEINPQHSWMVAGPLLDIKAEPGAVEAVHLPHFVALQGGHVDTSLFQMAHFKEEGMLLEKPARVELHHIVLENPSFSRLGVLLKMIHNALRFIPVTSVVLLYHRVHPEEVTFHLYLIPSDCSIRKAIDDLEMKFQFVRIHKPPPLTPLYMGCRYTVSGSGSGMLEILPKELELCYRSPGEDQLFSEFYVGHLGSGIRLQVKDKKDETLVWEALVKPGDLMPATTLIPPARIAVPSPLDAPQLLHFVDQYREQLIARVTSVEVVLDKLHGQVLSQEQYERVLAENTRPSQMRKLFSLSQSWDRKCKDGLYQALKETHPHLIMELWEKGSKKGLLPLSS

binding [1]: binds | binding [2]: no binding
B1: dipeptidyl peptidase 9, Q86TI2 1-863 (enzyme)
chain: MATTGTPTADRGDAAATDDPAARFQVQKHSWDGLRSIIHGSRKYSGLIVNKAPHDFQFVQKTDESGPHSHRLYYLGMPYGSRENSLLYSEIPKKVRKEALLLLSWKQMLDHFQATPHHGVYSREEELLRERKRLGVFGITSYDFHSESGLFLFQASNSLFHCRDGGKNGFMVSPMKPLEIKTQCSGPRMDPKICPADPAFFSFINNSDLWVANIETGEERRLTFCHQGLSNVLDDPKSAGVATFVIQEEFDRFTGYWWCPTASWEGSEGLKTLRILYEEVDESEVEVIHVPSPALEERKTDSYRYPRTGSKNPKIALKLAEFQTDSQGKIVSTQEKELVQPFSSLFPKVEYIARAGWTRDGKYAWAMFLDRPQQWLQLVLLPPALFIPSTENEEQRLASARAVPRNVQPYVVYEEVTNVWINVHDIFYPFPQSEGEDELCFLRANECKTGFCHLYKVTAVLKSQGYDWSEPFSPGEDEFKCPIKEEIALTSGEWEVLARHGSKIWVNEETKLVYFQGTKDTPLEHHLYVVSYEAAGEIVRLTTPGFSHSCSMSQNFDMFVSHYSSVSTPPCVHVYKLSGPDDDPLHKQPRFWASMMEAASCPPDYVPPEIFHFHTRSDVRLYGMIYKPHALQPGKKHPTVLFVYGGPQVQLVNNSFKGIKYLRLNTLASLGYAVVVIDGRGSCQRGLRFEGALKNQMGQVEIEDQVEGLQFVAEKYGFIDLSRVAIHGWSYGGFLSLMGLIHKPQVFKVAIAGAPVTVWMAYDTGYTERYMDVPENNQHGYEAGSVALHVEKLPNEPNRLLILHGFLDENVHFFHTNFLVSQLIRAGKPYQLQIYPNERHSIRCPESGEHYEVTLLHFLQEYL
